Assay results: PMC3805583
Results are given in words; binding and its absence hold for the method and conditions named. Binding seen in cells or lysates may run through a third protein. A yes stands for co-enrichment or nearness to the bait. Other partners may have been found. Sequences can lack the tags named with a protein.

By UniProt entry, the sequences of proteins in these tests, tags left out.
UniProt Q96B97: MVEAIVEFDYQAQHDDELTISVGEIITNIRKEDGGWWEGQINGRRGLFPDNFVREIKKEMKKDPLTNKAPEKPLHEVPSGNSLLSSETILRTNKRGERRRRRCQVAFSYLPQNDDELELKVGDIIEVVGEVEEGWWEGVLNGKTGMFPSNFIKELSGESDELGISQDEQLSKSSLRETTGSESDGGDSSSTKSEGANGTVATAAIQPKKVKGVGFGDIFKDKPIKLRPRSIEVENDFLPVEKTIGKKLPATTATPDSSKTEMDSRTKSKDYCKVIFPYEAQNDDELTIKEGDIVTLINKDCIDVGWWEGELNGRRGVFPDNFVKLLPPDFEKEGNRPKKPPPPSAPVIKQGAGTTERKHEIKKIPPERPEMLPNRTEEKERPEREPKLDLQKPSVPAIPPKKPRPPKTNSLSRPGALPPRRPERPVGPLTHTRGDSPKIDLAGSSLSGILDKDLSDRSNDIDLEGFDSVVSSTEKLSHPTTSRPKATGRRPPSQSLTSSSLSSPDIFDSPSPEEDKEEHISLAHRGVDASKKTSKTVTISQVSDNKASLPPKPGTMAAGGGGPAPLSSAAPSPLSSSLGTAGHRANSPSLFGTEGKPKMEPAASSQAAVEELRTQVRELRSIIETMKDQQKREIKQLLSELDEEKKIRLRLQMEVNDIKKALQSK

Biological target: T1, C-terminally GST-tagged murine LOX-PP-WT (1-162 aa) (mouse) (UniProt P28301)
T1 sequence: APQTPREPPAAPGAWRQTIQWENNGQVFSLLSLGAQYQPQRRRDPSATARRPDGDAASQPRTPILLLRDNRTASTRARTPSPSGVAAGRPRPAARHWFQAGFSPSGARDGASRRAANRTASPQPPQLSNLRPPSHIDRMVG
Test: affinity purification with mass spectrometry; GST or LOX-PP-GST expressed in ZR-75 cells for 24 h; lysis in Buffer A (25 mM HEPES-KOH pH 7.2, 150 mM KCl, 2 mM EDTA, 1% Triton X-100); Glutathione-Sepharose 4B 2 h at 4°C; SDS-PAGE, silver stain, ~85 kDa bands analysed by LC/MS/MS

## endogenous Cbl-interacting protein of 85-kDa (CIN85) (from UniProt Q96B97 1-665)
  binding: binds
